For test [1], the target named is T1, Fc fused human IL-18Rα (human) (UniProt Q13478).
T1 sequence (looked up): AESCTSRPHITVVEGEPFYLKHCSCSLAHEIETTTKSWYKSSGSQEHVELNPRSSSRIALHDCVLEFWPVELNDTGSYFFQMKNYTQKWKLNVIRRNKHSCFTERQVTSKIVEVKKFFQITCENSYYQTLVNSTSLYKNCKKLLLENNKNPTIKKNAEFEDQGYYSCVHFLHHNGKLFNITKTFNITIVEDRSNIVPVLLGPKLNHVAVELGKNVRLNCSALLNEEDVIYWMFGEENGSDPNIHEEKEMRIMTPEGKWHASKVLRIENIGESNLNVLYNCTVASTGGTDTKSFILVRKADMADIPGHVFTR
As to the kind of experiment: SPR (Biacore), Fc fused human IL-18Rα captured, IL-18 polypeptide as analyte in a dilution series (concentrations not printed on the sheet). In general terms: Surface plasmon resonance follows binding to a sensor surface in real time, without labels.

By UniProt entry, the sequences of proteins in these tests, tags left out. Where a name states a change or a piece, a line headed by the entry shows the natural chain unless it says otherwise.
UniProt Q14116: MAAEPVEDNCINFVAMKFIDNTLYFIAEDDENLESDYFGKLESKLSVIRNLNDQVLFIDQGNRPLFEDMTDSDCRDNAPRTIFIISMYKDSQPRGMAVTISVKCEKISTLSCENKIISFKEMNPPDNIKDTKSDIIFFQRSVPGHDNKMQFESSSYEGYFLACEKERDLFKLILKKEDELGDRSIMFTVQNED

For test [2], the target named is T2, IL-18Rα/β heterodimer (Fc fused human IL-18Rα mixed with Fc fused human IL-18Rβ) (human) (UniProt Q13478+O95256).
T2 sequence (looked up) 1: T1 sequence (looked up)
T2 sequence (looked up) 2: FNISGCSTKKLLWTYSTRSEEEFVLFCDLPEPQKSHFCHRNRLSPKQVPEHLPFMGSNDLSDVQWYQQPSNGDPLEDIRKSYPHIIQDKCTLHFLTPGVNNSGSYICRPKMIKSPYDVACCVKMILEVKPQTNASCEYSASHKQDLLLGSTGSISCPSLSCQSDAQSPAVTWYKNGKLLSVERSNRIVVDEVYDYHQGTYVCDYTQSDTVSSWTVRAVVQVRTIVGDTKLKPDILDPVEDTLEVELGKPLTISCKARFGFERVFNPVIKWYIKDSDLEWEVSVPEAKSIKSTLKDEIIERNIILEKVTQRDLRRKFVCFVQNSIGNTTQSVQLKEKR
As to the kind of experiment: SPR (Biacore), Fc fused human IL-18Rα and IL-18Rβ (IL-18RAP) pre-mixed and captured as heterodimer, IL-18 polypeptide as analyte in a dilution series (concentrations not printed on the sheet).

No constants are given. Whether binding was seen depends on the method and setting. Some results given as binding are weak or reduced against the parent protein; the word gives no strength. Sequences can lack the tags named with a protein.

With “IL-18 variant SEQ ID NO: 57 (E6K, C38S, K53A) (from UniProt Q14116 37-193) (ligand)”, in test [1], the binding result is “binds”. For “Native IL-18 wild-type (SEQ ID NO: 1, native sequence) (from UniProt Q14116 37-193) (ligand)”, the binding entry in test [1] and in test [2] was “binds” in each case.
